Source: PubChem BioAssay AID687031 (Broad Institute, 2013)
Among all 1,400 compounds or so, about 50 (4%) were called active.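 The calls were made as follows: active = fitted curve reaches 30% CPE protection at or below the top valid dose, with every test run called active; inconclusive = test runs disagree, some active and some not; inactive = every test run inactive, including effects in the wrong direction.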 The list shows a part of the results. Entries with a potency or affinity are not part of this list.

Test: antiviral rescue of DENV2-infected BHK-21 cells – cell-based, ATP luminescence, cherry-pick, dose response (AID 687031);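 also: 0% = infected DMSO wells and 100% = uninfected cell wells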
Conditions: BHK-21 DENV2 CPE protection, 5 d; at 19.5 µM (top of the series) unless noted

CPE protection (higher = active), inactive:
CCC(C)[C@H]1COCCS(=O)(=O)N1Cc1ccc(Br)cc1 (stereo partly drawn) 6.82%
COc1ccc(C(C)(NC(C)=O)c2nc(-c3cccc(F)c3)cs2)cc1 (stereo not drawn) 10%
CN(CC(=O)Nc1cccc(F)c1)C(=O)c1ccccc1CCc1ccccc1 -11.4%
COc1ccc(NC(=O)CN(C)C(=O)CC2CCCC2)cc1 -21.2%
c1ccc(CCNCCCOc2cccc3ccccc23)cc1 -16.8%
O=C(c1cc(-c2ccccc2)n[nH]1)N1CCN(S(=O)(=O)c2ccccc2)CC1 8.57%
CCN(CC(=O)Nc1c(F)cccc1F)C(=O)c1cccc(S(=O)(=O)NCc2ccccc2)c1 -0.434%
N#Cc1ccc(CN2CCN(C(=O)CC(NC(=O)c3ccccc3)c3ccccc3)CC2)cc1 (stereo not drawn) -5.27%
O=C(NCc1ccccc1F)[C@H]1N[C@H]2c3ccc(-c4ccccc4F)c(=O)n3C[C@H]2[C@@H]1CO 22.1%
O=C(NCc1ccccc1)[C@H]1CCCN1C(=O)[C@@H]1CCCN1C(=O)c1ccc(Cl)cc1Cl -7.08%
O=C(CN1CCN(Cc2ccccc2)CC1)NNC(=O)c1ccccc1 -9.21%
Cc1cccc(N(C)c2cc(C)nc3nc(C)nn23)c1 10.8%
COc1ccc(NC(=O)N[C@@H]2CC[C@@H](CCNS(=O)(=O)c3cccc(Cl)c3)O[C@@H]2CO)cc1 -1.55%
CN(C)S(=O)(=O)N1CCC(Oc2ccc(C(=O)N3CCCCCCC3)cc2)CC1 -20.8%
CC(OC(=O)c1ccc(O)cc1)C(=O)Nc1nc(-c2ccccc2)cs1 (stereo not drawn) 25.2%
CCn1c(=O)n(CC)c2cc(N3CCCC3)c(NC(=O)c3ccc(C)cc3)cc21 -11.9%
CC(C)C(=O)Nc1nnc(S(=O)(=O)N2CCc3ccccc32)s1 5.09%
Cc1ccc(-c2csc(NC(=O)c3ccc(S(=O)(=O)N4CCc5ccccc54)cc3)n2)cc1 -18%
O=C(c1ccc2c(c1)OCO2)N1CCC(Cc2ccccc2)CC1 -8.26%
COc1cccc(CNC(=O)[C@@H]2CCCN2C(=O)[C@H]2CCCCN2C(=O)c2ccc(Cl)cc2)c1 -6.07% [at 10 µM]
C[C@@H](NC(=O)C[C@@H]1CC[C@H]2[C@@H](COC[C@H](O)CN2C(=O)Nc2ccccc2)O1)c1ccccc1 -1.39%
COc1ccc(C(CNC(=O)c2cccc3cccnc23)N(C)C)cc1 (stereo not drawn) -6.53%
Cc1ccnc(NC(=O)C(Cc2ccccc2)NC(=O)c2ccccc2)c1 (stereo not drawn) -3.76%
CC(C)[C@H](NC(=O)c1cccs1)C(=O)N1CCC[C@H]1C(=O)NCc1ccccc1 3.64%
Cn1c(N)c(C(=O)N2CCN(c3ccccc3)CC2)c(=O)n(C)c1=O 0.064%
COc1ccc(S(=O)(=O)N2CC3(CN(C(=O)CN(C)C)[C@H](CO)c4c3c3ccc(OC)cc3n4C)C2)cc1 7.36%
COc1cccc(CN(C)S(=O)(=O)c2cccs2)c1 4.46%
FC(F)(F)c1nc2ccccc2n1CCNc1nc(CN2CCCCC2)cs1 -11.7%
CCCn1c(=O)c(C(=O)NNS(=O)(=O)c2ccc(C)cc2)c(O)c2ccccc21 1.54%
CC1(C(=O)NS(=O)(=O)c2cccc(Cl)c2)CCN1C(=O)COc1ccc(Cl)cc1 (stereo not drawn) -12.1%
CCCC(=O)OC[C@H]1CN(C2CCCC2)S(=O)(=O)c2c(F)cccc2O1 6.18%
COc1cc(C2NC(=O)NC(C)=C2C(=O)OC2CCCC(C)C2)cc(Br)c1O (stereo not drawn) -5.33%
COc1ccccc1C(CNc1ncnc2sc(C)c(C)c12)N(C)C (stereo not drawn) 9.26%
C/C=C/c1cnc2c(c1)C(=O)N([C@H](C)CO)C[C@H](C)[C@H](CN(C)S(=O)(=O)c1ccccc1)O2 11.8%
CC(=O)Nc1ccc(OCCCN2CCC(C(O)(c3ccccc3)c3ccccc3)CC2)cc1 4.34%
COc1cc(C(=O)NCc2cccc(Cl)c2)ccc1OCC(=O)N1CCOCC1 -20.5%
O=C(OCc1ccccc1)N1CCC2CC1c1ccc(-c3ccc4c(c3)OCO4)cc12 (stereo not drawn) 14%
COc1ccccc1CNC(=O)C(=O)Nc1ccc(C(=O)N2CCC(C)CC2)cc1 -6.74%
CC(C)c1cc(-c2cc(C(=O)NCc3ccccc3)on2)nc(NC2CCCC2)n1 8.61%
CC(C)CCn1c2ccccc2c2cc(CC(N)=O)ccc21 -14.7%
CC(C)C[C@@H](CN1C(=O)C(=O)NC[C@@H]1CC(C)C)NC(=O)Cc1ccccc1 -3.77%
CCN(C(=O)COC(=O)c1cc2c(s1)CCCCC2)C1CCS(=O)(=O)C1 (stereo not drawn) 1.16%
CCN(CC)S(=O)(=O)c1ccc(NC(=O)COC(=O)CNC(=O)C2CCCCC2)cc1 5.22%
CCOC(=O)c1ccc(NC(=O)c2nc[nH]c2C(=O)NC[C@H](C)O)cc1 -2.08%
CCOC(=O)c1cc(S(=O)(=O)N2CCc3ccccc32)cn1C -15.8%
CC(C)OC(=O)c1ccc(NCc2cc(O)ccc2O)cc1 -7.2%
COc1ccc(-c2nc(CN3CCC(C(=O)N4CCOCC4)CC3)c(C)o2)c(OC)c1 -16%
CNC[C@@H]1OCCCC[C@H](C)Oc2ccc(NS(C)(=O)=O)cc2C(=O)N([C@@H](C)CO)C[C@@H]1C -0.061%
CCNC(=O)C1(C)CCN(Cc2noc(-c3c(C)noc3C)n2)C1 (stereo not drawn) 2.45%
COc1ccc(S(=O)(=O)N2CCC(C(=O)NCCC(=O)NCc3ccccn3)CC2)cc1 -22.1%
CCN=C1NC(c2ccccc2C(F)(F)F)C(C(=O)OC)=C(C)N1C (stereo not drawn) 11%
CCCOc1cccc(C(=O)Nc2ccc(CN3CCOCC3)cc2)c1 -3.61%
CC(C)NC(=O)N(C)C[C@@H]1Oc2ccc(NC(=O)Cc3cn(C)c4ccccc34)cc2C(=O)N([C@@H](C)CO)C[C@H]1C -10.3%
COc1ccc(CC(=O)Nc2ccc(S(=O)(=O)Nc3cc(C)nc(C)n3)cc2)cc1OC 2.13%
CN1c2ccc(Br)cc2[C@@H]2[C@@H](CCN2S(=O)(=O)c2ccccc2)[C@H]1CO -16.7%
CN(C)CCCNc1cc(O)c2ncccc2c1 -6.23%
COc1ccc(-c2nc(NCCCN(C)C)c3ccccc3n2)cc1 -0.736% [at 10 µM]
COc1ccc2c3c([nH]c2c1)[C@@H](CO)N(Cc1ccc(F)cc1)CC31CN(C(=O)NC(C)C)C1 5.5% [at 21 µM]
O=C(Nc1ccccc1C(F)(F)F)C(O)(c1ccccc1)C1CCCCC1 (stereo not drawn) -25.2%
COC(=O)C(Cc1csc2ccc(Cl)cc12)NC(=O)c1ccc(Cl)cc1 (stereo not drawn) 4.11%
O=C(NC1CC1)c1cccc(NC(=O)c2cc(S(=O)(=O)N3CCOCC3)ccc2Cl)c1 -15%
COc1cccc(CNC(=O)[C@H]2[C@H](CO)[C@H]3Cn4c(ccc(-c5ccncc5)c4=O)[C@H]3N2C)c1 -6.96%
CCc1ccc2cc(C)cc(C)c2n1 28.8%
O=C(Nc1ccc(S(=O)(=O)NC2=NCCCCC2)cc1)c1cccs1 -16.1%
O=C(N[C@@H]1c2ccccc2CC[C@@H]1OCc1ccccc1)c1ccc(C(F)(F)F)cc1 -6.3%
CCOC(=O)CN1CC23C=CC(O2)C(C(=O)NCCc2ccccc2)C3C1=O (stereo not drawn) -15.2%
CC1CCc2sc(C(=O)NN=C3CCCC3)cc2C1 (stereo not drawn) -28.9%
Cc1ccc(S(=O)(=O)Cc2ccccc2Cl)cc1 -2.23%
CN(Cc1nc2ccccc2c(=O)[nH]1)C(=O)c1cccc(S(=O)(=O)N2CCc3ccccc32)c1 -17.6%
Cc1cc(OCC(=O)NC(Cc2ccc(Cl)cc2)C(=O)O)c2c(C)c(C)c(=O)oc2c1 (stereo not drawn) -6.1%
CC(NC(=O)c1ccccc1)C(=O)OCn1nnc2ccccc2c1=O (stereo not drawn) 9.01%
C[C@@H]1CCCCO[C@@H](CN(C)C(=O)c2ccccc2)[C@@H](C)CN([C@@H](C)CO)C(=O)c2cc(NS(=O)(=O)c3ccc(F)cc3)ccc2O1 -2.27%
COc1ccc(NC(=O)C2C(c3ccc4c(c3)OCO4)=Nc3ccccc3N2C(C)=O)cc1 (stereo not drawn) -5.17%
COc1ccc(CNC(=O)COC(=O)CN2C(=O)NC3(CCCC3)C2=O)cc1 0.804%
Cc1ccc(NC(=O)c2ccc3c(c2)CCN3S(C)(=O)=O)cc1 -2.19%
c1cc(-c2ccc(N3CCOCC3)cc2)n2cnnc2c1 0.764%
Cc1cccc(C)c1OCC(O)Cn1ccnc1C (stereo not drawn) -6.37%
Cc1cc(N2CCN(C)CC2)n2nc(-c3ccc(Cl)cc3)nc2n1 17.3%
Cc1nc(C(F)(F)F)ccc1C(=O)N1CCC1(C)C(=O)NCc1ccc(Cl)cc1 (stereo not drawn) 0.045%
COc1ccc(-c2cc(N)n(S(=O)(=O)c3ccc(C)cc3)n2)c(OC)c1 2.33%
O=C(NCCN1CCOCC1)c1ccc2c(c1)N(Cc1ccc(F)cc1)C(=O)CS2 20.8%
COc1ccc(-c2cn(CC[C@@H]3CC[C@H](NC(=O)Nc4ccc(F)cc4)[C@H](CO)O3)nn2)cc1 -7.67%
Cc1ccc(S(=O)(=O)NCC(=O)OCC(=O)N(Cc2ccccc2)C(C)(C)C)cc1 4.31%

Grouped by structure: the compounds so far containing bromine
CPE protection (higher = active), inactive:
CCC(C)[C@H]1COCCS(=O)(=O)N1Cc1ccc(Br)cc1 (stereo partly drawn) 6.82%
COc1cc(C2NC(=O)NC(C)=C2C(=O)OC2CCCC(C)C2)cc(Br)c1O (stereo not drawn) -5.33%
CN1c2ccc(Br)cc2[C@@H]2[C@@H](CCN2S(=O)(=O)c2ccccc2)[C@H]1CO -16.7%

Some of these compounds in order of molar mass, low to high:
CPE protection (higher = active), inactive:
Cc1nc(C(F)(F)F)ccc1C(=O)N1CCC1(C)C(=O)NCc1ccc(Cl)cc1 (stereo not drawn) 0.045%
CCN(CC)S(=O)(=O)c1ccc(NC(=O)COC(=O)CNC(=O)C2CCCCC2)cc1 5.22%
COc1cccc(CNC(=O)[C@@H]2CCCN2C(=O)[C@H]2CCCCN2C(=O)c2ccc(Cl)cc2)c1 -6.07% [at 10 µM]
